This note sets out measurements from article PMC5177772.

Chains of the proteins cited; added tags and fusions are not shown.
UniProt P10275: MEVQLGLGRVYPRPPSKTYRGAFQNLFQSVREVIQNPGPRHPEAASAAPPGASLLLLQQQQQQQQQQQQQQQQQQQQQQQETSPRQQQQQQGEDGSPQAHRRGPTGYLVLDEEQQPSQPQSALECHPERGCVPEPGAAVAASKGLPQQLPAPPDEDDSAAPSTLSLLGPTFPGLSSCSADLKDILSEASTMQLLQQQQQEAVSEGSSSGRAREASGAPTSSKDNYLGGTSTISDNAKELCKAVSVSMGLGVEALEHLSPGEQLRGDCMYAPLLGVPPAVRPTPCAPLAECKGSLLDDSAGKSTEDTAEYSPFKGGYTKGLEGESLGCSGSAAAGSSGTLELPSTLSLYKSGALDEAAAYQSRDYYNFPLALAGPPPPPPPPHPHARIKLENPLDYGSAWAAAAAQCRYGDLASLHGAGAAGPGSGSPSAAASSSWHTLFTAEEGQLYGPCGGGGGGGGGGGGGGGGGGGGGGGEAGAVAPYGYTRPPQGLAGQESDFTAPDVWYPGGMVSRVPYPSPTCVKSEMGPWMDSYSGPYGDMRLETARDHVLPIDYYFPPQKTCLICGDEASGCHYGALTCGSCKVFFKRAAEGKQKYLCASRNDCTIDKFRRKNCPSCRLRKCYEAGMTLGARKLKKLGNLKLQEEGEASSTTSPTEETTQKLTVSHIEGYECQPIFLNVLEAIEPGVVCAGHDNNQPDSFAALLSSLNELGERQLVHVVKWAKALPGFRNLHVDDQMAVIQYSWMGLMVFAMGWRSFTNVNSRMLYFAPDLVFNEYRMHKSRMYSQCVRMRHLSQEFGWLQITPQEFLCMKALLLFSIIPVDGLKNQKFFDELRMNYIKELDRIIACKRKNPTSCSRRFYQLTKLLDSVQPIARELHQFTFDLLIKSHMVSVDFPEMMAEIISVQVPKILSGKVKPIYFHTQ

No constants are given. Whether binding was seen depends on the method and setting. Binding seen in cells or lysates may run through a third protein. Some entries that bind do so weakly or less than the wild type. Where a sequence is shown, tags or fusion partners need not be part of it.

The target of the experiment is GFP-tagged androgen receptor (AR) (UniProt P10275). The experiment is described as follows: co-IP; Flag-PHF8 (wild type or H247A) and GFP-AR co-expressed in 293FT/HEK293T cells, with or without 10 nM DHT; lysis in RIPA buffer; immunoprecipitation with anti-Flag or anti-GFP antibody overnight at 4 °C, protein A/G-Sepharose, PBS washes; western blot. A general note: Immunoblotting shows a protein as a band on a membrane.

B1: Flag-tagged PHF8 (H247A) demethylase-deficient mutant (protein, UniProt Q9UPP1-2 1-1024)
chain: MASVPVYCLCRLPYDVTRFMIECDMCQDWFHGSCVGVEEEKAADIDLYHCPNCEVLHGPSIMKKRRGSSKGHDTHKGKPVKTGSPTFVRELRSRTFDSSDEVILKPTGNQLTVEFLEENSFSVPILVLKKDGLGMTLPSPSFTVRDVEHYVGSDKEIDVIDVTRQADCKMKLGDFVKYYYSGKREKVLNVISLEFSDTRLSNLVETPKIVRKLSWVENLWPEECVFERPNVQKYCLMSVRDSYTDFAIDFGGTSVWYHVLKGEKIFYLIRPTNANLTLFECWSSSSNQNEMFFGDQVDKCYKCSVKQGQTLFIPTGWIHAVLTPVDCLAFGGNFLHSLNIEMQLKAYEIEKRLSTADLFRFPNFETICWYVGKHILDIFRGLRENRRHPASYLVHGGKALNLAFRAWTRKEALPDHEDEIPETVRTVQLIKDLAREIRLVEDIFQQNVGKTSNIFGLQRIFPAGSIPLTRPAHSTSVSMSRLSLPSKNGSKKKGLKPKELFKKAERKGKESSALGPAGQLSYNLMDTYSHQALKTGSFQKAKFNITGACLNDSDDDSPDLDLDGNESPLALLMSNGSTKRVKSLSKSRRTKIAKKVDKARLMAEQVMEDEFDLDSDDELQIDERLGKEKATLIIRPKFPRKLPRAKPCSDPNRVREPGEVEFDIEEDYTTDEDMVEGVEGKLGNGSGAGGILDLLKASRQVGGPDYAALTEAPASPSTQEAIQGMLCMANLQSSSSSPATSSLQAWWTGGQDRSSGSSSSGLGTVSNSPASQRTPGKRPIKRPAYWRTESEEEEENASLDEQDSLGACFKDAEYIYPSLESDDDDPALKSRPKKKKNSDDAPWSPKARVTPTLPKQDRPVREGTRVASIETGLAAAAAKLAQQELQKAQKKKYIKKKPLLKEVEQPRPQDSNLSLTVPAPTVAATPQLVTSSSPLPPPEPKQEALSGSLADHEYTARPNAFGMAQANRSTTPMAPGVFLTQRRPSVGSQSNQAGQGKRPKKGLATAKQRLGRILKIHRNGKLLL
As for B1, the binding result is recorded as “binds”.
